Experimental data: PubChem BioAssay AID504774 (Drosophila RNAi Screening Center, 2011)
The deposit covers about 23,000 reagents; shown is an unselected part of those that have a named target and a result. 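Values are quantile-normalised luminescence on an arbitrary scale; higher means more cells surviving MMS.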 Names joined by + are all predicted targets of the reagent.

- Test: 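Genes required for cells to withstand methyl methanesulphonate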 (primary screen)
- Cell system: Drosophila Kc167 cells
- Reagents: long dsRNA against Drosophila genes, about 0.25 µg dsRNA per well
- Time to read-out: about 6 days: 3 days knock-down, then 3 days with or without MMS
- Treatment: methyl methanesulphonate 0.004% (w/v) for 3 days after knock-down
- Measurement: 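Viability in wells given MMS, read as ATP luminescence, normalised by quantiles plate by plate and averaged across replicates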
- Reading the numbers: mean viability with MMS and viability with MMS: higher = more surviving cells after MMS

The first 5 records, ahead of the listing:
predicted target	DRSC id	mean viability with MMS	viability with MMS, replicate 1	viability with MMS, replicate 2
RpS26 (GeneID 35098)	DRSC03420	2.76e6	3.50e6	3.50e6
CG14324 (GeneID 42119)	DRSC14803	3.26e6	3.77e6	3.61e6
LanB1 (GeneID 34068)	DRSC03360	3.72e6	4.18e6	4.28e6
CG32756 (GeneID 318193)	DRSC22505	3.46e6	3.94e6	3.96e6
CG32756 (GeneID 318193)	DRSC23271	3.67e6	4.12e6	4.21e6

Results, repeating the preview:
predicted target	DRSC id	mean viability with MMS	viability with MMS, replicate 1	viability with MMS, replicate 2
RpS26 (GeneID 35098)	DRSC03420	2.76e6	3.50e6	3.50e6
CG14324 (GeneID 42119)	DRSC14803	3.26e6	3.77e6	3.61e6
LanB1 (GeneID 34068)	DRSC03360	3.72e6	4.18e6	4.28e6
CG32756 (GeneID 318193)	DRSC22505	3.46e6	3.94e6	3.96e6
CG32756 (GeneID 318193)	DRSC23271	3.67e6	4.12e6	4.21e6
CG14005 (GeneID 33808)	DRSC02337	3.48e6	3.80e6	4.04e6
Cyp6v1 (GeneID 33056)	DRSC20565	3.61e6	4.13e6	4.01e6
vls (GeneID 35289)	DRSC02101	3.52e6	3.93e6	4.05e6
CG34375 (GeneID 42715)	DRSC14684	3.68e6	4.16e6	4.18e6
CG34375 (GeneID 42715)	DRSC14685	3.61e6	4.11e6	4.08e6
CG13791 (retired record) (GeneID 34034)	DRSC02295	3.57e6	3.94e6	4.13e6
Mal-A3 (GeneID 35826)	DRSC07462	3.48e6	3.90e6	4.01e6
CG31677 (GeneID 318880)	DRSC22023	3.65e6	4.12e6	4.09e6
gish (GeneID 49701)	DRSC16154	3.70e6	4.15e6	4.19e6
CG14562 (GeneID 40439)	DRSC11723	3.64e6	4.03e6	4.20e6
dpr4 (GeneID 3346160)	DRSC14531	3.59e6	4.00e6	4.10e6
dpr4 (GeneID 3346160)	DRSC14929	3.61e6	4.05e6	4.10e6
CG15376 (retired record) (GeneID 31354)	DRSC18046	3.58e6	3.98e6	4.14e6
CG42245 + MEP-1	DRSC07993	3.59e6	4.03e6	4.11e6
CG42245 + MEP-1	DRSC08274	3.29e6	3.79e6	3.75e6
CG42245 + MEP-1	DRSC21460	2.87e6	3.63e6	3.64e6
Gr32a (GeneID 34545)	DRSC02400	3.59e6	4.11e6	4.04e6
CG13203 (GeneID 36229)	DRSC06327	3.50e6	4.00e6	3.91e6
CG5274 (GeneID 40257)	DRSC11774	3.52e6	4.05e6	3.92e6
Nuf2 (GeneID 33992)	DRSC03123	3.36e6	3.55e6	3.94e6
GstT3 (GeneID 33047)	DRSC20541	3.58e6	4.14e6	3.96e6
CG5653 (GeneID 39024)	DRSC10534	3.49e6	4.03e6	3.90e6
CG31784 (GeneID 318939)	DRSC01574	3.59e6	4.15e6	3.96e6
cmb (GeneID 39513)	DRSC09790	3.62e6	4.01e6	4.16e6
Mal-B2 (GeneID 34598)	DRSC02417	1.90e6	4.12e6	4.00e6
Spg7 (GeneID 31253)	DRSC18469	3.61e6	4.18e6	4.01e6
lectin-46Ca (GeneID 53523)	DRSC06612	3.51e6	3.97e6	3.99e6
Surf4 (GeneID 41864)	DRSC16875	3.45e6	3.77e6	4.03e6
CG7518 (GeneID 41599)	DRSC16253	3.48e6	3.91e6	3.95e6
Taf10b + Taf10	DRSC00793	3.23e6	3.64e6	3.59e6
Nsun2 (GeneID 45064)	DRSC18662	3.32e6	3.70e6	3.88e6
AttB (GeneID 36637)	DRSC06734	3.59e6	4.34e6	3.94e6
Cyp6a20 (GeneID 36664)	DRSC07380	3.43e6	3.71e6	4.02e6
Trxr2 (GeneID 40475)	DRSC11900	3.28e6	3.65e6	3.76e6
CG4194 (GeneID 31173)	DRSC18520	3.61e6	4.17e6	4.01e6
CG14995 (GeneID 38487)	DRSC08452	3.17e6	3.66e6	3.68e6
CG14995 (GeneID 38487)	DRSC22991	3.53e6	3.95e6	4.10e6
kmr (GeneID 5740131)	DRSC12986	3.72e6	4.16e6	4.13e6
kmr (GeneID 5740131)	DRSC14827	3.59e6	4.22e6	3.95e6
kmr (GeneID 5740131)	DRSC14828	3.43e6	3.65e6	4.09e6
kmr (GeneID 5740131)	DRSC16472	3.51e6	4.07e6	3.88e6
